Consider two molecules from article PMC4359733.

Assay [1] concerns the target T1, FLAG-tagged Rab40C-G28N, constitutive negative mutant (mouse) (UniProt Q8VHQ4).
T1 sequence: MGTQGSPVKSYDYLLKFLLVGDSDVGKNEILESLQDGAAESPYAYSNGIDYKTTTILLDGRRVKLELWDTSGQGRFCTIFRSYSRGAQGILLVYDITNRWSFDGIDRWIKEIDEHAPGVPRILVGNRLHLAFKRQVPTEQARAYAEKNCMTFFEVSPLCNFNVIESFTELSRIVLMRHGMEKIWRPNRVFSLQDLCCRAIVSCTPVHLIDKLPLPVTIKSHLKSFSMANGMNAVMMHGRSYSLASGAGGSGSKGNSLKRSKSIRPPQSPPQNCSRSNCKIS
Put plainly: co-IP; COS-7 cells co-transfected with pEF-T7-Varp and pEF-FLAG-Rab40C (WT, Q73L, G28N or ΔSOCS); lysis in 50 mM HEPES-KOH pH 7.2, 150 mM NaCl, 1 mM MgCl2, 1% Triton X-100; anti-FLAG tag antibody-conjugated agarose beads.

The target in assay [2] is T2, FLAG-tagged Rab40C-Q73L, constitutive active mutant (mouse) (UniProt Q8VHQ4).
T2 sequence: T1 sequence with N28G, Q73L
Described as above.

Assay [3] addresses T3, FLAG-tagged Rab40C, wild type (pEF-FLAG-Rab40C) (mouse) (UniProt Q8VHQ4).
T3 sequence: T1 sequence with N28G
Described as above.

Assay [4] addresses T4, FLAG-tagged Rab40C-ΔSOCS, SOCS box deletion mutant (mouse) (UniProt Q8VHQ4).
T4 sequence: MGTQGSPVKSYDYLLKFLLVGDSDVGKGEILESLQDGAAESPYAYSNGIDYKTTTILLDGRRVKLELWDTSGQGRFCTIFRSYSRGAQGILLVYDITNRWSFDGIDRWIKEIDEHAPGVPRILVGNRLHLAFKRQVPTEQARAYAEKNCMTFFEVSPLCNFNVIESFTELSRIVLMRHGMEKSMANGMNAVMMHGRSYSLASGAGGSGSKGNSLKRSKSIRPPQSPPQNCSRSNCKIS
The assay is described as above.

Assay [5] concerns the target T5, FLAG-tagged Rab40C expressed in melanocytes (mouse) (UniProt Q8VHQ4).
T5 sequence: T1 sequence with N28G
Put plainly: co-IP; FLAG-tagged Rab40C and endogenous Varp in melanocytes (supplementary Fig. S2).

Positions count from the first letter of the chain named. Results are given in words; binding and its absence hold for the method and conditions named. In cells and extracts the contact can be indirect. Some entries that bind do so weakly or less than the wild type. Sequences can lack the tags named with a protein.

B1: T7-tagged full-length Varp (pEF-T7-Varp) (protein, UniProt Q3UMR0 1-1048)
chain: MALYDEDLLKNPFYLALQKWRPDLCSKVAQIHGIVLVPCRGSLPGSVQASCQFESYVLVPTEGHFQTLDGKAVVIEGNRIKLGAGFACLLSVPILFEETFYNEKEESFSILCIAHPLERRETSEEPSAPADPFSLKTIEDVREFLGRHSEKFDKNIASFHRTFRECERKSLRHHIDSVNALYTKCLQQLLRDSHLKVLAKQEAQMNLMKQAVEMYVHHDIYDLIFKYVGTMEASEDAAFNKITRSLQDLQQKDIGVKPEFSFNIPRAKRELGQLNKCTSPQQKLLCLRKVVQLMTQSPSQRVNLETMCADDLLSVLLYLLVKTEIPNWMANLSYIKNFRFSSSAKDELGYCLTSVEAAIEYIRQGSLSTKTPDAEGFGDRLFLKQRMNLLSQMTSTPIDCLFKHIASGNQKEVERLLSQDDQDKDAMQKMCHPLCSCEDCEKLISGRLNDPSVVTPFSRDDRGQTPLHVAALCGQASLIDFLVSKGAVVNATDYHGSTPLHLACQKGFQSVTLLLLHYKASTEVQDNNGNTPLHLACTYGQEDCVKALVYYDVQACRLDIGNEKGDTALHIAARWGYEGIIETLLQNGAPTAVQNRLKETPLKCALNSKILSIMEAHHLSSDRRPRPSEVPAQSPTRSVDSISQGSSTSSFSSISVSFRQEEVKKDYREVEKLLRAVADGDLEMVRYLLEWTEDDLDDVEDAISTVDLEFCHPLCQCPKCAPAQKLARISANGLSVNVTNQDGFSPLHMAALHGRTDLVPLLLKHGAYSGARNTSQAVPLHLACQQGHFQVAKCLLDSNAKPNKKDLSGNTPLICACSAGHHEVAALLLQHGASINACNNKGNTALHEAVMGRHTLVVELLLFYGASVDILNKRQYTAADCAEQDSKIMELLQVVPGCVASLDSVEEADHEGYVTVEIRRKWNPKMYNLPEEPLRRQFCLINPGGRFQERTSRETMGRDRSVPDLAGRSLQEPEKQRVTGKQSDLSDLSRYQTSEEGNKGLPERPVSRQAAPGHRPMVRRHTVNDAAILQVPEVTVHLTTHEASVPQS
As to B1, the binding entry is given as “binds weakly” in assay [1], “binds” in assay [2], “binds” in assay [3] and “binds” in assay [4].

B2: endogenous Varp in melanocytes (protein, UniProt Q3UMR0 1-1048)
chain: B1 chain
Take B2: the binding result in assay [5] is given as “binds”.
